These are yes or no findings as the source states them, for the method shown. Binding seen in cells or lysates may run through a third protein. Some entries that bind do so weakly or less than the wild type. Sequences can lack the tags named with a protein.
Target: T1, Bcl-2 antagonist killer 1 (BAK) (human (endogenous in NPC-TW 039 and NPC-TW 076)), Q16611
T1 chain: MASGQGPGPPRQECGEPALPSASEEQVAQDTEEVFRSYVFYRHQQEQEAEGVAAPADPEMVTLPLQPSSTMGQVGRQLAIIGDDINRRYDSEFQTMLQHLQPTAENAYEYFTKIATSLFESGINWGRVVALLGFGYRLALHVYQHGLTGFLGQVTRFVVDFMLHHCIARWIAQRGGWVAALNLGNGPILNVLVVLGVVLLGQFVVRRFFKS
Experiment: cross-linking; crude homogenates of apigenin-treated (35 μM, 36 h) NPC cells incubated with 5 mM bismaleimidohexane (BMH) in PBS, 30 min, room temperature; then mitochondrial and ER/microsomal fractions, 10% SDS-PAGE, blot with BAX or BAK antibody
Conditions: remark: other sources report otherwise

B1: Bcl-2 antagonist killer 1 (BAK), Q16611 1-211 (protein)
chain: MASGQGPGPPRQECGEPALPSASEEQVAQDTEEVFRSYVFYRHQQEQEAEGVAAPADPEMVTLPLQPSSTMGQVGRQLAIIGDDINRRYDSEFQTMLQHLQPTAENAYEYFTKIATSLFESGINWGRVVALLGFGYRLALHVYQHGLTGFLGQVTRFVVDFMLHHCIARWIAQRGGWVAALNLGNGPILNVLVVLGVVLLGQFVVRRFFKS
binding: binds

— paper PMC8224302
